Measured values reported in PubChem BioAssay AID493014 (National Center for Advancing Translational Sciences (NCATS), 2011).
This is one part of the list. The main result of the screen is listed elsewhere. These columns were measured beside it and carry no call. Most of these compounds were active or inconclusive in the main read-out, so they are no random draw. The note in brackets gives the kind of curve behind each potency; many fits are weak.

assay: qHTS Assay to Find Inhibitors of Chronic Active B-Cell Receptor Signaling; details: ABC-DLBCL IkBa-CBG/CBR reporter, luminescence ratio (green luciferase fused to IkBa over red control in TMD8 lymphoma cells), 4 h; measured here: CBR red luminescence, cell number
Procedure, shortened: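 Concentration-response series (up to 46 uM) were applied to TMD8 dual-reporter cells for 4 h at 37C with doxycycline. Green/red ratio, after filter-overlap correction, defined %Activity; red signal alone was normalised to basal cells and zero luminescence.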

Compound | AC50
Cc1oc2c(c(C)cc3oc(=O)c(CC(=O)NCC(=O)NCC(=O)O)c(C)c32)c1C | 10 µM [rising, single point]
CCN(CC)C(=O)CSc1nc2ccccc2n1CC(=O)N1CCN(c2ccccc2OC)CC1 | 29.1 µM [rising, single point]
O=C(Cn1nc2n(c1=O)-c1ccccc1SC2)N/N=C/c1ccncc1 | 22.4 µM [rising, single point]
O=S(=O)(Nc1nc2ccccc2nc1NCCO)c1cccc(Cl)c1 | 0.164 µM [falling, full curve, poor fit]
COc1cc(/C=C(\C#N)C(=O)N2CCCCC2)ccc1O | 11.2 µM [rising, partial curve, poor fit]
O=C(OCCCc1cc2ccccc2c(=O)o1)c1ccccc1C(F)(F)F | 7.31 µM [rising, partial curve, poor fit]
CC1=NN(c2ccc(Cl)c(C(=O)O)c2)C(=O)C1 | 20.6 µM [falling, single point]
CCOC(=O)c1sc(-c2ccccc2)cc1NC(=O)Nc1ccccc1 | 8.2 µM [falling, partial curve]
CC1Oc2ccccc2C=C1/C=C1/SC(N2CCOCC2)=NC1=O (stereo not drawn) | 11.2 µM [falling, partial curve]
Cc1ccc(/C=N/NC(=O)c2ccc(Cn3cc([N+](=O)[O-])cn3)o2)cc1 | 2.31 µM [falling, full curve, poor fit]
Cn1cccc1C(=O)NCC(c1ccc(F)cc1)N1CCOCC1 (stereo not drawn) | 0.562 µM [rising, partial curve, poor fit]
CCCN(CC(=O)Nc1ccccc1C)C(=O)c1cccc(S(=O)(=O)N2CCc3ccccc3C2)c1 | 10 µM [falling, partial curve, poor fit]
O=C(COC(=O)c1cccc(NC(=O)c2ccco2)c1)c1ccc(Br)cc1 | 11.2 µM [falling, partial curve]
CNC(=O)NCCN1CCCC1=O | 29.1 µM [rising, single point]
COc1ccccc1C(=O)Nc1ccc(C)c(S(=O)(=O)N2CCCCC2)c1 | 20.6 µM [falling, single point]
Cc1cccc(NC(=O)CN(C)C(=O)C2CC2)c1C | 3.26 µM [falling, single point]
FC(F)(F)c1nnc2ccc(-n3ccnc3)nn12 | 23.1 µM [rising, single point]
O=C(COc1ccc2ccccc2c1)Nc1ccncc1 | 0.501 µM [rising, full curve, poor fit]

2 records picked at random from those above:
Compound | AC50
O=C(COc1ccc2ccccc2c1)Nc1ccncc1 | 0.501 µM [rising, full curve, poor fit]
O=C(COC(=O)c1cccc(NC(=O)c2ccco2)c1)c1ccc(Br)cc1 | 11.2 µM [falling, partial curve]
